The entries are a selection whose mix differs from that of the whole data set. The list shows a part of the results. For some assays here: The exact form of the protein is not confirmed.

Sequences of proteins named here, by UniProt entry; tags and fusion partners are left off. A change or cut given only in a name is not applied to a line headed by its entry.
UniProt P32519: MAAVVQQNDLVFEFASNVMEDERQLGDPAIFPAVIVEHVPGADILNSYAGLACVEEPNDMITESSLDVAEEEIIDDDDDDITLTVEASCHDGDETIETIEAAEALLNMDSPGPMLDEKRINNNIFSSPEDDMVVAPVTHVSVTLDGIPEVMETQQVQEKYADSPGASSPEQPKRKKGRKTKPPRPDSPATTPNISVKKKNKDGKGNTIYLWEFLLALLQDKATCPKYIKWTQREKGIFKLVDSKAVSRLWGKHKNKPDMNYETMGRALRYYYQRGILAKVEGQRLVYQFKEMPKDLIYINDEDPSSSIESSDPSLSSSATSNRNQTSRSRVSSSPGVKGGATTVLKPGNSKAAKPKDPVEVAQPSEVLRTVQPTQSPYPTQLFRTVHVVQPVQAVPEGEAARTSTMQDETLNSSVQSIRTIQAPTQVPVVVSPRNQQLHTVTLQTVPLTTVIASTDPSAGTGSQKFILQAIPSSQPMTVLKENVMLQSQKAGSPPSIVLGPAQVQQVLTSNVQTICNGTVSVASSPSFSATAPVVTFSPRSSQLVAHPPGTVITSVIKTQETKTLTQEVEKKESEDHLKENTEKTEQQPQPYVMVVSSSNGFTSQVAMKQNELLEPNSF

Drawing on paper PMC7862700, this text covers binding signal for 40 sequences.

The first assay deals with ELF1 (UniProt P32519). The assay is described as follows: DAPPL (digital affinity profiling via proximity ligation, sequencing). Particulars: 10 mM Tris-HCl pH 7.5, 50 mM NaCl, 1 mM DTT, 4% glycerol, room temperature, 30 min; GST-TFs on glutathione beads, 16-mer random dsDNA library, 0.1% …; high values mean tight binding; double strand, one strand shown; scale: fold enrichment (6-mer frequency, TF over GST control).
In turn, TAATGA came in with a binding signal of 1.1.
In turn, CCCAAT came in with a binding signal of 1.29.
CACTGG: the binding signal amounted to 1.17.
Still for that read-out and setting: next, TTTCTT: 1.38; ATACTG: 1.09.
Same read-out and setting: then TAACCC, with 1.28.
Regarding AATGGC, the binding signal came out at 1.39.
For the sequence AACAAT, the binding signal stood at 1.29.
As to ATTCCC, the binding signal came to 1.4.
With ATTTGG, the binding signal worked out at 1.36.
In turn, ACATTC yielded a binding signal of 1.37.
On to TGCACT, for which the binding signal stood at 1.42.
On to TACGTT, for which the binding signal was determined as 1.29.
In the case of CACGCT, the binding signal was determined as 1.34.
As for AGCCCC, the binding signal turned out to be 1.05.
On the same count and under the same terms, then ATAGCA, with 1.14; and TTCCGT, with 1.74.
The sequence CAAAAT yielded a binding signal of 1.18.
In turn, TCCGGC returned a binding signal of 2.
Turning to ATCCCT, the binding signal turned out to be 1.31.
In turn, ATGAGC had a binding signal of 1.24.
TCTTAC showed a binding signal of 1.32.
On the same count and under the same terms, next, AGCCCT: 1.07; GATACG: 1.15.
AAAACT: the binding signal came out at 1.25.
The sequence TTCTCG yielded a binding signal of 1.36.
ATGTCA came in with a binding signal of 1.16.
As to TTAACC, the binding signal is 1.31.
AATTAG gave a binding signal of 1.12.
In turn, CTAGGT returned a binding signal of 1.2.
In turn, GATACT yielded a binding signal of 1.1.
As to TTAACG, the binding signal stood at 1.23.
Same read-out and setting: then AAGTTT, with 1.37; and CCGTAA, with 1.09.
In the case of GTTTAA, the binding signal stood at 1.13.
For the sequence ATCTAG, the binding signal stood at 1.1.
TATTAT displayed a binding signal of 1.25.
Still for that read-out and setting: next, ATCTAC: 1.34; TCTAAT: 1.14.
The same measure, in the same setting: next, CCTCTC: 1.43.

The next assay has as its target T1, ETV4 (UniProt P43268).
T1 sequence: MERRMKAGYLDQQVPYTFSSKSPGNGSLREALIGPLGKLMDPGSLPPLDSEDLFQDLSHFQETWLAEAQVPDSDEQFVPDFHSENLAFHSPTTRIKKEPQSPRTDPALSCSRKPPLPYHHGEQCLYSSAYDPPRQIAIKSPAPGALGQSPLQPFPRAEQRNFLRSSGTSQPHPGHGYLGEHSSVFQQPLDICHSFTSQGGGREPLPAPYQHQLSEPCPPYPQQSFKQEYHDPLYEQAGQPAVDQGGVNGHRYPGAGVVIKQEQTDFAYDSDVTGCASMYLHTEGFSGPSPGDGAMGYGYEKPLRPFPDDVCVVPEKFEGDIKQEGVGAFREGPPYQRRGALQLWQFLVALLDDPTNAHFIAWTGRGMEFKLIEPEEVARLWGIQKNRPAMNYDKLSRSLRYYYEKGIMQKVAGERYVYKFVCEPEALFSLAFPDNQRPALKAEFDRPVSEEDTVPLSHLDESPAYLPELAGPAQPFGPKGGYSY
The description is as above. Particulars: 10 mM Tris-HCl pH 7.5, 50 mM NaCl, 1 mM DTT, 4% glycerol, room temperature, 30 min; GST-TFs on glutathione beads, 16-mer random dsDNA library, 0.1% …; high values mean tight binding; double strand, one strand shown; scale: fold enrichment (6-mer frequency, TF over GST control).
TAATGA had a binding signal of 1.12.
In turn, CCCAAT came in with a binding signal of 1.25.
In turn, CACTGG had a binding signal of 1.06.
In turn, TTTCTT displayed a binding signal of 1.32.
On to ATACTG, for which the binding signal amounted to 1.08.
Sequence TAACCC displayed a binding signal of 1.32.
For AATGGC, the binding signal is 1.48.
The sequence AACAAT gave a binding signal of 1.3.
Regarding ATTCCC, the binding signal turned out to be 1.45.
In turn, ATTTGG showed a binding signal of 1.37.
Same read-out and setting: then ACATTC, with 1.35; and TGCACT, with 1.57.
TACGTT returned a binding signal of 1.27.
As to CACGCT, the binding signal worked out at 1.38.
In turn, AGCCCC registered a binding signal of 1.11.
Sequence ATAGCA returned a binding signal of 1.07.
The sequence TTCCGT had a binding signal of 1.8.
As for CAAAAT, the binding signal was 1.15.
In turn, TCCGGC showed a binding signal of 2.44.
In turn, ATCCCT displayed a binding signal of 1.38.
Sequence ATGAGC showed a binding signal of 1.3.
Regarding TCTTAC, the binding signal is 1.2.
The same measure, in the same setting: next, AGCCCT: 1.15; GATACG: 1.05; AAAACT: 1.2.
As to TTCTCG, the binding signal was determined as 1.47.
Still for that read-out and setting: next, ATGTCA: 1.2; TTAACC: 1.21.
The sequence AATTAG registered a binding signal of 1.11.
Regarding CTAGGT, the binding signal was 1.06.
Turning to GATACT, the binding signal is 1.1.
Regarding TTAACG, the binding signal worked out at 1.2.
For the sequence AAGTTT, the binding signal is 1.4.
The same measure, in the same setting: next, CCGTAA: 1.13; GTTTAA: 1.03; ATCTAG: 1.08.
As to TATTAT, the binding signal was found to be 1.23.
In turn, ATCTAC returned a binding signal of 1.32.
TCTAAT displayed a binding signal of 1.18.
Regarding CCTCTC, the binding signal is 1.41.
